Test results: article PMC8222357, “The structure of ORC–Cdc6 on an origin DNA reveals the mechanism of ORC activation by the replication initiator Cdc6” (Nature Communications, 2021)
No constants are given. Whether binding was seen depends on the method and setting. Some binding calls cover weakened binding; strength is not graded here.

Target: T1, Orc2, subunit of S. cerevisiae ORC (S. cerevisiae), P32833
T1 chain: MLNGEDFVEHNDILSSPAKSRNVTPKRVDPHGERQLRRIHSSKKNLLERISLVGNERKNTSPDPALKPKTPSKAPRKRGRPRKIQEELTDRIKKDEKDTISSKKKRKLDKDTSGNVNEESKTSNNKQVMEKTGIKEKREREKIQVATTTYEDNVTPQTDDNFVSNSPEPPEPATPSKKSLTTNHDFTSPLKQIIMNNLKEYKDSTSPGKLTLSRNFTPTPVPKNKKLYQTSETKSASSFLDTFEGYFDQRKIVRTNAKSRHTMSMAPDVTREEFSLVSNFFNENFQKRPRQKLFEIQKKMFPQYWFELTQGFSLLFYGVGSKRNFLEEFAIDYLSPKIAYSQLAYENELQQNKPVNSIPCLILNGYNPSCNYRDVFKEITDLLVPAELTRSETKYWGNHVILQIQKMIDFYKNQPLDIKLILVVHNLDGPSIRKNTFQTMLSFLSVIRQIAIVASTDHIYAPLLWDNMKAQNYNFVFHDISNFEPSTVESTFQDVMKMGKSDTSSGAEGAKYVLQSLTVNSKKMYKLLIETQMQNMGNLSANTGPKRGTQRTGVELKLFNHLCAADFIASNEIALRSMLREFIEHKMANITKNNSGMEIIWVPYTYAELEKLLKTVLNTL
Experiment: cryo-EM structure; ORC first bound to 85 bp ARS1 origin dsDNA, then Cdc6 added (about 1 μM ORC:1.25 μM DNA:6.4 μM Cdc6), 5 mM ATPγS, 5 mM DTT, on ice; no cross-linking agent; maps at 3.3 and 3.6 Å; both purified
Details: remark: other sources report otherwise

B1: Cdc6 (replication initiator), S. cerevisiae, wild type (natural protein)
chain: MSAIPITPTKRIRRNLFDDAPATPPRPLKRKKLQFTDVTPESSPEKLQFGSQSIFLRTKALLQKSSELVNLNSSDGALPARTAEYEQVMNFLAKAISEHRSDSLYITGPPGTGKTAQLDMIIRQKFQSLPLSLSTPRSKDVLRHTNPNLQNLSWFELPDGRLESVAVTSINCISLGEPSSIFQKIFDSFQDLNGPTLQIKNMQHLQKFLEPYHKKTTFVVVLDEMDRLLHANTSETQSVRTILELFLLAKLPTVSFVLIGMANSLDMKDRFLSRLNLDRGLLPQTIVFQPYTAEQMYEIVIQKMSSLPTIIFQPMAIKFAAKKCAGNTGDLRKLFDVLRGSIEIYELEKRFLLSPTRGSLNSAQVPLTPTTSPVKKSYPEPQGKIGLNYIAKVFSKFVNNNSTRTRIAKLNIQQKLILCTIIQSLKLNSDATIDESFDHYIKAITKTDTLAPLQRNEFLEICTILETCGLVSIKKTKCKGKTKRFVDKIDVDLDMREFYDEMTKISILKPFLH
notes: Cdc6, S. cerevisiae; also called yeast Cdc6; source: purified as described previously, with minor modifications (lysis buffer with 500 mM potassium phosphate)
- binding: binds
